Test results as given in publication PMC10218007, “Potential Clinically Relevant Effects of Sialylation on Human Serum AAG-Drug Interactions Assessed by Isothermal Titration Calorimetry: Insight into Pharmacoglycomics?” (International Journal of Molecular Sciences, 2023).

The chains behind the UniProt entries cited, without tags or fusion partners. Residues count along the entry.
UniProt P02763, 19-201: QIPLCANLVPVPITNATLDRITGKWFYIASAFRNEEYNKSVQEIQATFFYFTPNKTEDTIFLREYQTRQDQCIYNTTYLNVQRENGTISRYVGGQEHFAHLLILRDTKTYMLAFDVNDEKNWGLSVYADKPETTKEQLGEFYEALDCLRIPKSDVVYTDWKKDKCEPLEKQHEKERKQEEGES

How the values were obtained:
[1] = biological target: Native human AAG (AAG + s) (Homo sapiens, UniProt P02763); test: ITC titration of native AAG (AAG + s) with drugs; type: binding; settings: 310 K
Protocol: (§1) All chemicals were used without further purification. Immobilized SialEXO® (derived from Akkermansia muciniphilla and expressed in E. Coli) was obtained from Smart Enzymes™ Genovis (Lund, Sweden), and HEPES buffer was obtained from VWR International (Leuven, Belgium). All other reagents were of analytical grade or better. All solutions were prepared immediately before the experiments in order to minimize contamination and/or impair the stability of solutions. The solutions for microcalorimetric titrations were prepared in 25 mM HEPES at pH 7.40 containing 150 mM NaCl (Kemika, Zagreb, Croatia), using doubly distilled water and 5 M NaOH (Kemika, Zagreb, Croatia) for adjusting the pH value. AAG and drug solutions were prepared by dissolving the appropriate amount of solid in the given solvent.
(§2) The ITC titrations were performed on a MicroCal PEAQ–ITC calorimeter (Malvern Panalytical Ltd., Malvern, UK). The solutions were thoroughly degassed beforehand, under vacuum to avoid any formation of bubbles that might be present in the sample cell. All microcalorimetric measurements were performed at 37 °C. […]
(§3) All ITC data were analyzed with MicroCal PEAQ-ITC Analysis Software 1.30 using the One Set Sites Fitting Model. […] All p values were calculated using the t-test() function in Microsoft Excel (Microsoft Corporation, Redmond, WA, USA).

[2] = biological target: AAG+s; settings: log Ka = log (1/KD), KD in M; ref (2) lidocaine, (3) warfarin, (4) clindamycin; cited from earlier work
[3] = usual therapeutic peak plasma level; ref 46 lidocaine, 47 diltiazem, 48 clindamycin, 49 warfarin; cited from earlier work
[4] = biological target: Desialylated human AAG (AAG − s) (Homo sapiens, UniProt P02763); test: ITC titration of desialylated AAG (AAG − s) with drugs; type: binding; settings: 310 K
Protocol: as §1, §2, §3

[5] = system: AAG + s or AAG − s; settings: calculated, AAG only, no HSA
Text: AAG is an acute-phase protein with variable concentration in plasma and this consequently affects the free drug concentration. Hyperquad simulation and speciation software (HySS 4.0.31) was used to calculate the fraction of free vs. bound drug by solving the mass balance equations using the measured binding affinities. […] The plasma concentrations of the drug vary over time depending on the dosing regimen, and steady–state concentrations were used in the model.
In addition to AAG, human serum albumin (HSA) also plays a critical role in drug binding due to its high plasma concentration. Therefore, to obtain more realistic estimates, the free drug concentration was calculated taking into account the available data on the binding of the studied drugs to HSA.

CCN(CC)CC(=O)Nc1c(C)cccc1C [Lidocaine, lidocaine]
N (number of drug binding sites), AAG + s [1]: 0.810 ± 0.0990 | Δr S°, AAG + s [1]: 0.725 ± 1.53 J K^−1 mol^−1 | Reference AAG+s log KA [2]: 5.18 | Cmax [3]: 21.3 µM | N (number of drug binding sites), AAG − s [4]: 0.818 ± 0.226 | Δr S°, AAG − s [4]: 15.9 ± 3.17 J K^−1 mol^−1 | Decrease of free plasma concentration with AAG − s vs AAG + s [5]: 20–30%
